Reference: PubChem BioAssay AID1259264 (Sanger Institute, 2017)

Test: 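Kinase-wide knock-down to find genes that strengthen targeted drug effects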 (primary screen)
System: CL40 human colorectal cancer cells
Reagent: siRNA pool against human genes
Conditions: DMSO, or an anchor drug: BYL719 at 1 µM, cetuximab at 5 µg/ml, or trametinib at 10 nM
Measurement: 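Viability as a fraction of non-targeting pool control (replicates averaged), control-based robust z-score, plus averaged synergy for each drug: BYL719 1 µM, cetuximab 5 µg/ml, trametinib 10 nM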
Direction: robust z-score, siRNA alone and viability, siRNA alone: higher = more viable cells; synergy score with BYL719: higher = stronger combined killing with BYL719; synergy score with cetuximab: higher = stronger combined killing with cetuximab; synergy score with trametinib: higher = stronger combined killing with trametinib
Call rule: 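Essential call: siRNA with no drug reaches a robust z under -3 (low cell count); drug synergy scores do not affect it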
Meaning of the calls: active = essential (lowers viability alone); inactive = not essential
Here is an unselected part of 794 reagents tested. 15 of all reagents (1.9%) count as active. 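Calls rest on knock-down alone at z-score below -3; synergy scores with the three drugs do not decide them.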 No viability above 1 is reported: the scale is capped. Reagent sequences are not shown. The record does not give: the amount of reagent, the time to read-out.

| Target gene | robust z-score, siRNA alone | viability, siRNA alone (fraction of control) | synergy score with BYL719 | synergy score with cetuximab | synergy score with trametinib | activity call |
| --- | --- | --- | --- | --- | --- | --- |
| RAF1 (GeneID 5894) | -1.51 | 0.853 | 0.0434 | -0.019 | 0.00706 | inactive |
| ARAF (GeneID 369) | 0.539 | 1 | -0.0155 | 0.03 | 0.0316 | inactive |
| BRSK1 (GeneID 84446) | 0.239 | 0.978 | -0.168 | -0.0386 | 0.0465 | inactive |
| ROCK1 (GeneID 6093) | 0.539 | 1 | 0.0399 | 0.0243 | 0.0182 | inactive |
| MAP3K7 (GeneID 6885) | 0.539 | 1 | -0.102 | -0.0174 | 0.136 | inactive |
| PSKH2 (GeneID 85481) | 0.188 | 0.975 | -0.073 | -0.0421 | 0.149 | inactive |
| TSSK2 (GeneID 23617) | 0.064 | 0.966 | -0.00123 | 0.0178 | 0.047 | inactive |
| PRKX (GeneID 5613) | 0.152 | 0.972 | -0.112 | -0.0354 | 0.113 | inactive |
| FGFR4 (GeneID 2264) | -0.0716 | 0.956 | -0.117 | 0.00547 | -0.00287 | inactive |
| TSSK1B (GeneID 83942) | 0.539 | 1 | -0.144 | -0.0174 | 0.147 | inactive |
| PIK3R4 (GeneID 30849) | 0.539 | 1 | 0.00717 | 0.0221 | 0.127 | inactive |
| NR4A2 (GeneID 4929) | 0.539 | 1 | 0.0772 | 0.0975 | 0.17 | inactive |
| BLK (GeneID 640) | 0.539 | 1 | -0.106 | -0.015 | 0.041 | inactive |
| PI4K2B (GeneID 55300) | 0.539 | 1 | -0.049 | 0.0267 | 0.0739 | inactive |
| CSK (GeneID 1445) | 0.539 | 1 | -0.136 | -0.0174 | 0.054 | inactive |
| BTK (GeneID 695) | -0.343 | 0.937 | -0.087 | 0.0268 | -0.0453 | inactive |
| KCNH2 (GeneID 3757) | 0.539 | 1 | -0.0785 | 0.038 | 0.0585 | inactive |
| PHKG2 (GeneID 5261) | 0.292 | 0.982 | -0.0491 | -0.0108 | 0.0149 | inactive |
| AK3 (GeneID 50808) | 0.539 | 1 | 0.0259 | 0.0591 | 0.0704 | inactive |
| WT1 (GeneID 7490) | 0.539 | 1 | -0.156 | -0.0174 | -0.0015 | inactive |
